Data source: PubChem BioAssay AID1508597 (Cure First, 2020)
Purpose: 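Knock-downs altering ovarian cancer cell survival with or without PARP inhibitor rucaparib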 (primary screen). Cells: human ovarian carcinoma lines grown from tumours: OCI-P5x (papillary serous) and OCI-C5x (clear cell). Knock-down reagent: siRNA pool against human genes, 1.25 pmol siRNA per well. Duration: 72 h or 96 h, depending on the cell culture. Conditions: rucaparib 20 µM (about IC30) or vehicle, present until read-out. Rucaparib or vehicle: Vehicle. Cell line: OCI-P5x (serous). Detection: 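Luminescent ATP-based viability assay read 72 or 96 h after transfection, depending on culture, given as normalised percent viability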. Scale: viability, normalised: higher = more viable cells remaining. Call rule: 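Active when normalised viability falls below 80 percent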. Meaning of the calls: active = viability under 80%; inactive = viability 80% or more.
Shown is a random part of the about 2,100 reagents, in one setting of the screen. 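Calls flag viability under 80% in either arm, not effects specific to rucaparib; the reference for percent is not stated.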 The record does not give: the 100% reference.

Gene	technical replicate	viability, normalised (%)	Call
FMR1	1	50.1	active
FMR1	2	74.3	active
FMR1	3	67	active
RBM14	1	80	active
RBM14	2	73.9	active
RBM14	3	60.8	active
ARID2	1	60.1	active
ARID2	2	63	active
ARID2	3	48.8	active
TP73	1	49.3	active
TP73	2	49.6	active
TP73	3	57.9	active
SREBF1	1	68.5	active
SREBF1	2	71.2	active
SREBF1	3	87.5	inactive
GRN	1	73.9	active
GRN	2	88.1	inactive
GRN	3	82.2	inactive
DCLK1	1	85.8	inactive
DCLK1	2	75.3	active
DCLK1	3	87.8	inactive
DHX36	1	74.6	active
DHX36	2	76.9	active
DHX36	3	72.9	active

An excerpt taken from the entries so far, as a working copy:
Gene	technical replicate	viability, normalised (%)	Call
DHX36	1	74.6	active
DHX36	2	76.9	active
DHX36	3	72.9	active
